## Assay results

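Recombinant human HSD17B10 (3-hydroxyacyl-CoA dehydrogenase type-2) enzyme, with activity tracked as NADH fluorescence build-up in a kinetic read.
Each compound was run as a 15-point series from about 0.0007 to 57 µM.
Fitted half-maximal potency (AC50) from the inhibition curve; a lower value means a more potent inhibitor. The record's title names HSD17B4; its protocol and target entry give this enzyme.
Active means a well-fitted inhibition curve with a large enough effect; inconclusive means a weak, poorly fitted or top-concentration-only effect.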

Values are in µM.
These entries are mostly ones the record files as inconclusive; other results of the assay are not listed here.
A potency from a partial, single-point or poor curve is only a rough figure.
Some entries filed as inconclusive have a full curve.

SMILES,fitted potency (µM),outcome,curve as filed
Nc1ccc2c(C(F)(F)F)cc(=O)oc2c1,25.12,active,-
CCNc1ncc2nc(-c3ccccc3)c(=O)n(Cc3ccc(F)cc3)c2n1,15.85,active,-
CN(C)c1ncc2ncc(=O)n(C3CC3)c2n1,39.81,inconclusive,"inhibitor, single point"
O=C(CN1C(=O)c2cccc3cccc1c23)NCC1CCCO1 (stereo unspecified),39.81,inconclusive,"inhibitor, single point"
COc1ccccc1NC(=O)c1cc2ccc(O)cc2o/c1=N\O,31.62,inconclusive,"inhibitor, single point"
CCn1nc(-c2ccccc2)nc2c(=O)n(C)c(=O)nc1-2,25.12,inconclusive,"inhibitor, single point"
COc1ccccc1NCCC(=O)OCC(=O)NCc1ccco1,31.62,inconclusive,"inhibitor, single point"
COCc1cc(=O)n2c([nH]c3ccccc32)c1C#N,25.12,active,-
CC(=O)c1c(C)nc2nonc2c1N,25.12,active,-
CCCCn1c2nc3ccccc3nc2c2c(=N)oc(C)nc21,25.12,active,-
COC(=O)c1c(C#N)c(N)nc2c1CCCC2,25.12,active,-
CN(C)c1ncc2nc(-c3ccc(F)cc3)c(=O)n(C)c2n1,25.12,inconclusive,"inhibitor, single point"
CCCCn1nc(NC(=O)c2cccs2)c2cc3ccccc3nc21,39.81,inconclusive,"inhibitor, single point"
CCCCC(CC)Cn1c(N)c(C#N)c2nc3ccccc3nc21 (stereo unspecified),31.62,active,-
COc1ccc(CNc2oc(-c3cccc4ccccc34)nc2C#N)cc1,15.85,active,-
Cc1ccc(C2C=C(c3ccccc3OC(F)F)Nc3ncnn32)cc1 (stereo unspecified),39.81,inconclusive,"inhibitor, single point"
CC1CC=C2C(C#N)=C(N)C(C#N)(C#N)C(c3cccs3)C2C1 (stereo unspecified),39.81,inconclusive,"inhibitor, single point"
O=C(CN1C(=O)c2cccc3cccc1c23)N1CCN(c2ccc(F)cc2)CC1,31.62,inconclusive,"inhibitor, single point"
O=C(c1ccco1)N1CCN(c2c(-c3ccccc3)c3cc(Cl)ccc3[nH]c2=O)CC1,31.62,inconclusive,"inhibitor, single point"
CC(C)Cn1c(N)c(S(=O)(=O)c2cccs2)c2nc3ccccc3nc21,15.85,active,-
COC(=O)C1=C(C)NC2=C(C(=O)CCC2)C1c1cccc(C)n1 (stereo unspecified),31.62,active,-
O=C(c1nc2n(n1)C(c1ccc(Cl)cc1)C=C(c1ccccc1)N2)N1CCOCC1 (stereo unspecified),31.62,inconclusive,"inhibitor, single point"
CN(C)c1ccc(-c2ccc3ncnc(N(C)C)c3c2)cc1,39.81,inconclusive,"inhibitor, single point"
CSCCC(NC(C)=O)C(=O)Oc1ccc2c3c(c(=O)oc2c1)CCCC3 (stereo unspecified),3.162,active,-
O=C1CCNc2cc3ccccc3cc21,31.62,active,-
Nc1nc(N)c2nc(CNc3ccc(C(=O)NC(CCC(=O)O)C(=O)O)cc3)cnc2n1 (stereo unspecified),39.81,inconclusive,"inhibitor, single point"
CCN1CCN(c2cc3c(cc2F)c(=O)c(C(=O)O)cn3C2CC2)CC1,25.12,inconclusive,"inhibitor, single point"
O=C(Nc1ccc(N2CCN(C(=O)c3ccco3)CC2)cc1)c1ccccc1F,39.81,inconclusive,"inhibitor, single point"
O=C(c1cc2c(=O)n3ccccc3nc2s1)N1CCOCC1,3.162,active,-
CN(C)C(=O)CSc1nnc(-c2cc(-c3cccs3)nc3ccccc23)o1,31.62,active,-
Oc1ccc(C2NCc3ccccc3-n3cccc32)cc1Cl (stereo unspecified),31.62,inconclusive,"inhibitor, single point"
COC(=O)C1=CNC=C(C(=O)OC)C1c1ccc(Cl)cc1,25.12,active,-
CCCC1O[C@@H]2C[C@H]3[C@@H]4CCC5=CC(=O)C=C[C@]5(C)[C@H]4[C@@H](O)C[C@]3(C)[C@]2(C(=O)CO)O1 (stereo partly specified),31.62,inconclusive,"inhibitor, single point"
COCc1cc(C)nc(SCC(=O)c2ccc(O)c(O)c2)c1C#N,31.62,inconclusive,"inhibitor, single point"
CCN(CC)c1ccc2c(Cl)c(Br)c(=O)oc2c1,39.81,inconclusive,"inhibitor, single point"
CC1(c2ccccn2)Nc2ccccc2-c2nc3ccccc3n21 (stereo unspecified),31.62,active,-
CCNc1ncc2nc(-c3ccc(OC)cc3)c(=O)n(C)c2n1,31.62,active,-
O=C(CN1C(=O)c2cccc3cccc1c23)NCc1cccnc1,39.81,inconclusive,"inhibitor, single point"
N#Cc1cc2cc3c(cc2nc1N1CCOCC1)OCO3,0.5012,inconclusive,"inhibitor, single point"
CCOc1ccc(C2C=C(c3ccccc3)Nc3nnnn32)cc1 (stereo unspecified),31.62,inconclusive,"inhibitor, single point"
CN1CCN(c2ncc3nc(-c4cccc(C#N)c4)c(=O)n(C)c3n2)CC1,31.62,active,-
Nc1cccc2c1C(=O)N(C(=O)c1ccc(S(=O)(=O)N3CCCCCC3)cc1)C2=O,25.12,inconclusive,"inhibitor, single point"
CCn1c(CSc2nccn2C)nc2cc(C(=O)O)ccc21,31.62,inconclusive,"inhibitor, single point"
O=c1c(O)c(-c2ccc(O)cc2O)oc2cc(O)cc(O)c12,12.59,inconclusive,"inhibitor, full curve"
C=CCn1c(N)c(C(=O)OC(C)CC)c2nc3ccccc3nc21 (stereo unspecified),25.12,active,-
COCCn1c(=O)c(-c2cccs2)nc2cnc(Oc3ccc(OC)cc3)nc21,39.81,inconclusive,"inhibitor, single point"
Oc1c(Cl)cc(Cl)c(Cl)c1Cc1c(O)c(Cl)cc(Cl)c1Cl,39.81,inconclusive,"inhibitor, single point"
CN1CCc2c(sc3c2C(=O)NC(c2ccccn2)N3)C1 (stereo unspecified),25.12,active,-
COCCCNC(=O)c1c(N)n(-c2ccc3c(c2)OCO3)c2nc3ccccc3nc12,25.12,inconclusive,"inhibitor, single point"
COc1cccc(Cn2c(=O)c(-c3ccc(Cl)cc3)nc3cnc(N(C)C)nc32)c1,31.62,inconclusive,"inhibitor, single point"
N#Cc1cc2c(=O)n3ccccc3nc2n(Cc2cccnc2)c1=N,31.62,inconclusive,"inhibitor, single point"
O=C(O)Cn1c2c(c3ccccc31)CCCC2,39.81,inconclusive,"inhibitor, single point"
c1csc(-c2cnc3ccccc3n2)c1,31.62,active,-
O=c1cc(C(F)(F)F)c2sc(N3CCCCC3)nc2[nH]1,25.12,active,-
COCCn1c(=O)c(-c2ccc(Cl)cc2)nc2cnc(N3CCOCC3)nc21,25.12,inconclusive,"inhibitor, partial curve"
CCOC(=O)Cn1nnnc1C(CC)N(Cc1cccs1)Cc1cc2cc(C)ccc2[nH]c1=O (stereo unspecified),39.81,inconclusive,"inhibitor, single point"
CCOC(=O)CSc1nc2ccc(N3CCOCC3)cc2c(=O)n1Cc1ccc2c(c1)OCO2,31.62,active,-
CCN(C)c1ccc(/C=N\n2nnnc2N)cc1,6.31,inconclusive,"inhibitor, full curve"

Source: PubChem BioAssay AID893 (NCATS, 2007).